{"source": "PubChem BioAssay AID493246 | Drosophila RNAi Screening Center | 2011", "aim": "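Genome-wide search for dsRNAs that reduce cell number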 (primary screen)", "cells": "Drosophila Kc and S2R+ cells", "reagent": "long dsRNA against Drosophila genes", "read-out": "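Cell number per well after knock-down, printed as raw plate values; calls were based on per-plate z-scores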", "scale": "Kc cell number and S2R+ cell number: higher = more cells remaining", "hit rule": "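Counted as a hit if cell number falls by a z-score of at least 3 within its plate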", "note": "The deposit covers about 21,000 reagents; this is a random part of those that have a named target and a result. In the full data, 429 (2%) were called active. 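Values are raw and not normalised between plates; calls rest on per-plate z-scores that were not deposited.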 Entries without a mark were called inactive. Reagent sequences are not shown. Not given: the amount of reagent, the time to read-out."}
The first 2 entries, to show the layout:
{"target": "CG12640 (GeneID 31973)", "amplicon": "DRSC17847", "Kc cell number, rep 1": 1.60e6, "Kc cell number, rep 2": 1.64e6, "S2R+ cell number, rep 1": 9.74e5, "S2R+ cell number, rep 2": 1.13e6}
{"target": "fok (GeneID 44380)", "amplicon": "DRSC02103", "Kc cell number, rep 1": 1.70e6, "Kc cell number, rep 2": 1.74e6, "S2R+ cell number, rep 1": 1.17e6, "S2R+ cell number, rep 2": 2.13e5}

Main list, from the first entry:
{"target": "CG12640 (GeneID 31973)", "amplicon": "DRSC17847", "Kc cell number, rep 1": 1.60e6, "Kc cell number, rep 2": 1.64e6, "S2R+ cell number, rep 1": 9.74e5, "S2R+ cell number, rep 2": 1.13e6}
{"target": "fok (GeneID 44380)", "amplicon": "DRSC02103", "Kc cell number, rep 1": 1.70e6, "Kc cell number, rep 2": 1.74e6, "S2R+ cell number, rep 1": 1.17e6, "S2R+ cell number, rep 2": 2.13e5}
{"target": "CG9040 (GeneID 39546)", "amplicon": "DRSC11053", "Kc cell number, rep 1": 1.59e6, "Kc cell number, rep 2": 1.46e6, "S2R+ cell number, rep 1": 1.14e6, "S2R+ cell number, rep 2": 1.30e6}
{"target": "CG32633 (GeneID 326225)", "amplicon": "DRSC18987", "Kc cell number, rep 1": 1.57e6, "Kc cell number, rep 2": 1.71e6, "S2R+ cell number, rep 1": 1.04e6, "S2R+ cell number, rep 2": 1.17e6}
{"target": "CG15152 (GeneID 35082)", "amplicon": "DRSC02453", "Kc cell number, rep 1": 1.61e6, "Kc cell number, rep 2": 1.61e6, "S2R+ cell number, rep 1": 1.26e6, "S2R+ cell number, rep 2": 1.40e6}
{"target": "sPLA2 (GeneID 35665)", "amplicon": "DRSC06041", "Kc cell number, rep 1": 1.58e6, "Kc cell number, rep 2": 1.66e6, "S2R+ cell number, rep 1": 1.28e6, "S2R+ cell number, rep 2": 1.44e6}
{"target": "CG2906 (GeneID 35753)", "amplicon": "DRSC06841", "Kc cell number, rep 1": 1.54e6, "Kc cell number, rep 2": 1.50e6, "S2R+ cell number, rep 1": 1.35e6, "S2R+ cell number, rep 2": 1.39e6}
{"target": "CG12766 (GeneID 38462)", "amplicon": "DRSC08295", "Kc cell number, rep 1": 1.60e6, "Kc cell number, rep 2": 1.47e6, "S2R+ cell number, rep 1": 1.02e6, "S2R+ cell number, rep 2": 1.20e6}
{"target": "CG5781 (GeneID 34678)", "amplicon": "DRSC02893", "Kc cell number, rep 1": 1.64e6, "Kc cell number, rep 2": 1.66e6, "S2R+ cell number, rep 1": 1.34e6, "S2R+ cell number, rep 2": 1.44e6}
{"target": "Dora (GeneID 50356)", "amplicon": "DRSC19614", "Kc cell number, rep 1": 1.50e6, "Kc cell number, rep 2": 1.59e6, "S2R+ cell number, rep 1": 9.42e5, "S2R+ cell number, rep 2": 1.07e6}
{"target": "Dora (GeneID 50356)", "amplicon": "DRSC19781", "Kc cell number, rep 1": 1.70e6, "Kc cell number, rep 2": 1.72e6, "S2R+ cell number, rep 1": 1.07e6, "S2R+ cell number, rep 2": 1.20e6}
{"target": "Dora (GeneID 50356)", "amplicon": "DRSC20034", "Kc cell number, rep 1": 1.47e6, "Kc cell number, rep 2": 1.50e6, "S2R+ cell number, rep 1": 1.00e6, "S2R+ cell number, rep 2": 1.13e6}
{"target": "Dora (GeneID 50356)", "amplicon": "DRSC20035", "Kc cell number, rep 1": 1.24e6, "Kc cell number, rep 2": 1.30e6, "S2R+ cell number, rep 1": 8.72e5, "S2R+ cell number, rep 2": 9.79e5}
{"target": "CG3448 (GeneID 39094)", "amplicon": "DRSC10368", "Kc cell number, rep 1": 1.47e6, "Kc cell number, rep 2": 1.49e6, "S2R+ cell number, rep 1": 1.18e6, "S2R+ cell number, rep 2": 1.26e6}
